The other results are listed elsewhere or left out.
The molecules below were run on T1, CTL2-GFP (C. trachomatis L2/434/Bu, GFP-expressing). Settings: bulk GFP, single well; 28.5 h, 10 µM; inhibitor.
T1 construct: L2/434/Bu, GFP-expressing
Set-up: species or system HeLa; Intracellular C. trachomatis growth in HeLa cells, bulk GFP fluorescence relative to DMSO

In order of falling “% of control remaining” value:
1. COc1cc2c(cc1OC)C1(CCN(CCc3c[nH]c4ccccc34)CC1)NC(=O)C2 [CBK039992]  180.344%
2. O=C(CN1CCC(c2ccc(F)cc2)CC1)N1CCOCC1 [CBK283683]  177.576%
3. COc1cnc(-c2ccsc2)c(NC(=O)CC(C)C)n1 [CBK145292]  170.131%
4. NC(=O)CNC(=O)C1CCCN(c2nc3c(-c4ccccc4)csc3c(=O)[nH]2)C1 (centres unmarked) [CBK215487]  156.33%
5. COc1ccc2ccccc2c1[S+]([O-])NC1CCCCC1 (centres unmarked) [CBK022400]  156.074%
6. CCOc1ccc(NC(=O)N(CCO)Cc2nccn2C)cc1C#N [CBK307634]  152.909%
7. Cc1nc(C)c(C(C)NCc2c(C(C)C)nn(C)c2N(C)C)s1 (centres unmarked) [CBK304005]  150.974%
8. CCC(Sc1ccc2nnc(-c3ccc(C)cc3)n2n1)C(=O)O (centres unmarked) [CBK287524]  150.21%
9. Cc1nc(NC(=O)c2ccoc2)sc1C [CBK296729]  147.256%
10. CC(C)(O)c1cc(CC2(NCc3ccc(Cl)cc3)COC2)no1 [CBK289254]  145.653%
11. CC1CN(C(=O)NC(=O)c2ccc(-c3csnn3)cc2)CC(C)O1 (centres unmarked) [CBK017091]  145.034%
12. O=C(O)CC1C(=O)NCCN1Cc1cccc(C(F)(F)F)c1 (centres unmarked) [CBK269958]  144.116%
13. Cc1csc(C(Cc2ccsc2)NC(=O)C2CCOCC2)n1 (centres unmarked) [CBK285047]  139.454%
14. CNCCC(Sc1ccccn1)c1ccccc1 (centres unmarked) [CBK021724C]  138.92%
15. O=[N+]([O-])c1ccc(OCCO)cc1 [CBK000628]  138.072%
16. Brc1cnc(-n2cnc3ccccc32)nc1 [CBK288546]  136.566%
17. Nc1ncnc(NCCCc2ccccc2)c1[N+](=O)[O-] [CBK267261]  136.465%
18. O=C(Cn1cccn1)NC(CN1CCCCC1)c1ccccc1 (centres unmarked) [CBK281726]  136.113%
19. Fc1cccc(Nc2nc(C3CCNCC3)c3ccccn23)c1 [CBK281522]  131.273%
20. O=C(c1ccccn1)N1C2CCC1CC(O)(c1ccco1)C2 (centres unmarked) [CBK284034]  130.035%
21. O=C(/C=C/c1cccnc1)NCc1ccc(OC2CCNCC2)cc1 [CBK038945T]  127.832%
22. O=C(C1CC1)N1CCC[C@H]1Cn1nc(-c2ccc(F)cc2)ccc1=O [CBK284252]  127.58%
23. NCCc1nc(-c2ccccc2)c2cnccn12 [CBK035705]  125.999%
24. CC(C)c1ccc(NC(=O)CN2CCN(c3ccc(C(F)(F)F)cn3)CC2)cc1 [CBK086000]  124.363%
25. Cc1nc(-c2ccccc2)sc1CNC(=O)C(F)(F)F [CBK092363]  124.335%
26. Cc1cc(-c2ccc(=O)n(CCNC(=O)C3CCCCC3)n2)c(C)o1 [CBK284522]  123.735%
27. Cc1ncsc1C(=O)N1CCCC(n2cnc3cc(F)ccc32)C1 (centres unmarked) [CBK284470]  122.781%
28. Cc1cc(C)n(CC2CN(CC(=O)NCc3ccccn3)CCO2)n1 (centres unmarked) [CBK305344]  122.044%
29. O=C(NNc1nc(-c2ccccc2)cc(-c2ccccc2)n1)Nc1ccccc1 [CBK262223]  121.834%
30. Cc1cc(OCC(C)C)ccc1C(=O)C1=C(O)C(=O)N(Cc2cccnc2)C1c1cccnc1 (centres unmarked) [CBK264883]  120.82%
31. CSCC[C@H](NC(=O)c1cccc2c1-c1ccccc1C2=O)C(=O)O [CBK286781]  119.896%
32. O=C(NCCN1CCOCC1)c1ccc2nccnc2c1 [CBK268806]  119.05%
33. O=C(O)c1ccc(CNCCc2c[nH]c3ccccc23)cc1 [CBK287265]  118.981%
34. Cc1ccc2nc(-c3ccc(/N=C/c4ccc(/C=N/c5ccc(-c6nc7ccc(C)cc7s6)cc5)cc4)cc3)sc2c1 [CBK261661]  117.884%
35. N#Cc1c(N)nc(SCC(=O)c2cc3ccccc3oc2=O)c(C#N)c1-c1ccc(O)cc1 [CBK261269]  116.093%
36. COc1ccc(NC(=O)CC2NC(=O)NC2=O)cc1 (centres unmarked) [CBK267279]  115.359%
37. O=C1Nc2ccc(/C=C/c3ccccc3)cc2C(=O)N2CC[C@H](NC(=O)N3CCOCC3)[C@@H]12 [CBK289344]  114.596%
38. O=C(Nc1ccc(S(=O)(=O)NCc2ccccc2)cc1)Nc1ccc2c(c1)OCO2 [CBK268186]  113.831%
39. O=C(O)CCNc1ccc(Br)cc1C(=O)O [CBK087259]  112.947%
40. NC1CCC(N(CCc2ccccc2)C(=O)Nc2ccc3c(c2)OCO3)CC1 (centres unmarked) [CBK000480C]  112.577%
41. Nc1n[nH]c(SCC(=O)Nc2ccc(Br)cc2Cl)n1 [CBK267875]  112.369%
42. Fc1ccc(Br)cc1SCCc1ccccn1 [CBK262330G]  111.287%
43. CCN(CC)C(=O)c1ccc(-n2ccnc2)c(-n2cccc2)c1 [CBK285371]  110.432%
44. COc1cccc(NC(=O)c2ccc(NC(=O)CCCC(=O)O)cc2)c1 [CBK287137]  109.464%
45. Cc1cc(C)n2c(SCC(C)(C)NS(=O)(=O)c3ccccc3)nnc2n1 [CBK268369]  109.288%
46. CCN(C(C)COC)S(=O)(=O)c1cccc(Cl)c1Cl (centres unmarked) [CBK305146]  108.909%
47. COc1ccc(C2C(C(=O)Nc3ccccc3)=C(C)Nc3ncnn32)cc1 (centres unmarked) [CBK287353]  108.805%
48. O=C(O)C[C@@H]1CCN(C(=O)c2ccc3c(c2)OCO3)C[C@@H]1CC1=NCCc2ccccc21 [CBK289160]  107.062%
49. CCCn1cnc2cc(NC(=O)Cn3cc(C(=O)NC4CCCCC4)ccc3=O)ccc21 [CBK286098]  106.908%
50. CS(=O)(=O)N(Cc1ccc(Cl)cc1)c1ccc(C(=O)Nc2ccccc2C(=O)O)cc1 [CBK264093]  106.771%
51. Cc1ccc(C2=N/C(=C/c3ccc(OS(=O)(=O)c4ccc(C)c([N+](=O)[O-])c4)cc3)C(=O)O2)cc1 [CBK264647]  106.388%
52. CCn1c(CN2CCn3c(nnc3C3CC3)C2)nc2c(F)cccc21 [CBK306300]  105.199%
53. COc1ncc(-c2nccnc2OC)c(OC)n1 [CBK106744]  104.952%
54. Cc1ccccc1CNCCNCCO [CBK278293C]  104.818%
55. CCc1nnc(N/N=C/c2ccc(OCc3ccc(F)cc3Cl)c(OC)c2)n1N [CBK278173C]  103.882%
56. Cn1c(=O)c2c(ncn2CC(=O)Nc2cccc(Br)c2)n(C)c1=O [CBK133287]  103.243%
57. CCc1ccc(O)c(NC(=S)NC(=O)c2cccc3c(Br)cccc23)c1 [CBK264385]  102.692%
58. CCCCC1CCC(c2noc(-c3ccc(F)cc3)n2)CC1 (centres unmarked) [CBK027363]  101.839%
59. COc1ccccc1CCNC(=O)c1cnccn1 [CBK268147]  100.998%
60. CCOC(=O)c1cnc2nc(N3CCOCC3)nn2c1N [CBK007371]  100.938%
61. CC(=O)Nc1ccc(S(=O)(=O)N2CCN(CCO)CC2)cc1 [CBK262196]  100%
62. CNC(=O)c1ccc(-c2ccccc2OC)nc1N1CCOCC1 [CBK106210]  100%
63. COc1ccc(CN2C(=O)CS(=O)(=O)CC2=O)cc1OC [CBK011127]  98.6759%
64. Cc1cc(S(=O)(=O)NCc2ccccc2-n2ccnc2)ccc1F [CBK281477]  98.0704%
65. Cc1nn(Cc2cccnc2)c(=O)n2cccc12 [CBK283848]  97.962%
66. CC(C)(C)c1cc(N)c(C(N)=O)s1 [CBK016752]  96.1645%
67. Fc1ccc2[nH]c3c(c2c1)CCNC31CCN(CCOc2ccccc2)C1 (centres unmarked) [CBK085404T]  94.9516%
68. CCn1cc(C(=O)N2CCN(Cc3ccco3)C[C@@H]2C(C)C)c(C)n1 [CBK285488]  92.5689%
69. Cc1ccc(NC(=O)CSc2nc3ccccc3c(=O)n2Cc2ccco2)cc1Cl [CBK265606]  91.795%
70. CC(C)NC(=O)c1sc2ccccc2c1C1CN(Cc2ccc3ncccc3c2)CCO1 (centres unmarked) [CBK285930]  91.6777%
71. Cc1ccc(C(C)C)c(OCc2ccc(C(=O)Nc3ccc(S(N)(=O)=O)cc3C)o2)c1 [CBK265833]  91.1423%
72. Clc1cncc(NCCc2c[nH]c3ccccc23)n1 [CBK093514]  91.0223%
73. Cn1c2c(c(=O)[nH]c1=O)C1(O)C(=O)c3ccccc3C1(O)N2 (centres unmarked) [CBK261683]  90.8798%
74. COc1ccc([N+](=O)[O-])c(N2CCOC3(CCN(C(=O)OCc4ccccc4)CC3)C2)n1 [CBK161117T]  90.6493%
75. CC(=O)NCCn1cc2c(n1)[C@H]1CN(C(=O)c3ccccc3)C[C@H]1C2 [CBK282073]  88.5193%
76. COc1ccc2c(c1)CCCN2C(=O)c1sc2ccccc2c1Cl [CBK056960]  86.1911%
77. COc1ccc(-c2nccnc2NCCCN(C)C)cc1 [CBK037671]  86.1064%
78. O=C(c1ccco1)N1CCC(n2c(=O)oc3ccc(Cl)cc32)CC1 [CBK284343]  85.7518%
79. Cc1noc(C)c1CC(=O)Nc1cccc(CN2CCCCCC2)c1 [CBK281407]  80.1329%
80. CCCC/C=C/c1cnc2[nH]c(=O)n(Cc3ccc(S(N)(=O)=O)cc3)c2n1 [CBK064956]  65.4199%

Source: paper PMC12040169 (PLOS Biology, 2025)
